Values from PubChem BioAssay AID504774 (Drosophila RNAi Screening Center, 2011).

Purpose: 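Genes required for cells to withstand methyl methanesulphonate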 (primary screen)
Cell system: Drosophila Kc167 cells
Knock-down reagent: long dsRNA against Drosophila genes, about 0.25 µg dsRNA per well
Duration: about 6 days: 3 days knock-down, then 3 days with or without MMS
Treatment: methyl methanesulphonate 0.004% (w/v) for 3 days after knock-down
Read-out: 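Viability in wells given MMS, read as ATP luminescence, normalised by quantiles plate by plate and averaged across replicates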
Direction: mean viability with MMS: higher = more surviving cells after MMS
In all, the deposit lists about 23,000 reagents; shown is an unselected part of those that have a named target and a result. 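Values are quantile-normalised luminescence on an arbitrary scale; higher means more cells surviving MMS.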 Not all columns of the deposit are shown. Reagent sequences are not shown.

mean viability with MMS, by target gene and reagent
Map60 (Microtubule-associated protein 60): DRSC07464 3.89e6
CG3776: DRSC04417 2.94e6
Vha13 (Vacuolar H[+] ATPase 13kD subunit): DRSC16895 3.42e6
Tim13: DRSC09848 3.73e6
Irk1 (Inwardly rectifying potassium channel 1): DRSC16106 3.84e6
ppk9 (pickpocket 9): DRSC04134 3.52e6; DRSC04135 3.59e6
Cpr92F (Cuticular protein 92F): DRSC15819 3.63e6
Obp28a (Odorant-binding protein 28a): DRSC03394 3.57e6
CG8141: DRSC16387 3.60e6
ich (ichor): DRSC12715 3.39e6; DRSC14448 3.65e6

Looked up above:
For “mean viability with MMS”, ppk9 (pickpocket 9) [DRSC04135] has 3.59e6
Tim13 [DRSC09848], mean viability with MMS → 3.73e6

The listing continues.
mean viability with MMS, by target gene and reagent
fliI (flightless I): DRSC20578 1.85e6
fok (fledgling of Klp38B): DRSC02103 3.42e6
CG6163: DRSC10595 3.98e6
Alr (Augmenter of liver regeneration): DRSC19469 3.46e6
CG4271: DRSC00649 3.60e6
Cdk2 (Cyclin-dependent kinase 2): DRSC16921 3.44e6
nur (nemuri): DRSC01342 3.24e6
Ir75c (Ionotropic receptor 75c): DRSC10190 3.54e6
aux (auxilin): DRSC12161 3.62e6
Cpsf160 (Cleavage and polyadenylation specificity factor 160): DRSC05968 3.50e6
Odc1 (Ornithine decarboxylase 1): DRSC07482 3.63e6
CG14618: DRSC20631 3.55e6
Usp8 (Ubiquitin specific protease 8): DRSC15876 3.59e6
CG2247: DRSC19844 3.59e6
Grip (Glutamate receptor interacting protein): DRSC17940 3.11e6; DRSC18395 3.46e6
